Test results as given in patent publication US20060148703A1.
No constants are given. Whether binding was seen depends on the method and setting. Some results given as binding are weak or reduced against the parent protein; the word gives no strength.

Protein sequences, listed by entry. Tags and fused reporters are not part of them. Residues count along the entry.
UniProt P02769, residues 25-607: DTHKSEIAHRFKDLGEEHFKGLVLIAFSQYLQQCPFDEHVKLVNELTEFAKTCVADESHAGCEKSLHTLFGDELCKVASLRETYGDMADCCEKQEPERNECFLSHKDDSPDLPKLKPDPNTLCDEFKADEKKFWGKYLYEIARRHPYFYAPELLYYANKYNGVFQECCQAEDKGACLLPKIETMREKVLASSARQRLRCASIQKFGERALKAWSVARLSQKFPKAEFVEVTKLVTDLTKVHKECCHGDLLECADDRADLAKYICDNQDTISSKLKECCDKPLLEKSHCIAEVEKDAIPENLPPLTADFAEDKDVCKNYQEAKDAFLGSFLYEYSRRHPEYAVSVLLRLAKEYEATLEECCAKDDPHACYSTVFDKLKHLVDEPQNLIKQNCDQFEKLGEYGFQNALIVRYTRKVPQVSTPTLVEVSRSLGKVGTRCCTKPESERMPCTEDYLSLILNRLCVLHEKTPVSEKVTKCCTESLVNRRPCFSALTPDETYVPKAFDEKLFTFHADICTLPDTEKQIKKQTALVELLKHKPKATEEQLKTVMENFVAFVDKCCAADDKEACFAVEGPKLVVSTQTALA
UniProt P01127, residues 82-190: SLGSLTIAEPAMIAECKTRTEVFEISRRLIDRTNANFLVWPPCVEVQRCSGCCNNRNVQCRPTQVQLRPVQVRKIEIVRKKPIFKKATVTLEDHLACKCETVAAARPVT

Key:
[1] = molecular target: T1, self-assembling peptide nanofibers (peptide sequence AcN-…-CNH2); assay: 100 ng protein embedded in NFs, incubated in PBS 3 h at 37 C, Bradford assay of the supernatant; BSA is the weaker comparator
T1 sequence (peptide, N-terminal acetyl and C-terminal amide, printed as AcN-...-CNH2): RARADADARARADADA

[2] = molecular target: T1, self-assembling peptide nanofibers (peptide sequence AcN-…-CNH2); assay: protein embedded in NFs, in vitro binding

Substance	binding [1]	binding [2]
BSA (Sigma-Aldrich) (from UniProt P02769 25-607)	binds	–
human PDGF-BB (PeproTech) (from UniProt P01127 82-190) (ligand)	–	binds
